Assay results: PubChem BioAssay AID1671190 (National Center for Advancing Translational Sciences (NCATS), 2021)
Where “and” joins values, the source holds several entries; their conditions need not be identical. Identical values can stand only once. Among all 580,000 compounds or so, about 6,100 (1.1%) were called active. Inconclusive results, whose numbers are uncertain, are shown with a selection of clear calls. Calls follow the shape of the dose curve; as a rule, active = well fitted inhibition curve with a large enough effect; inconclusive = small, poorly fitted or top-dose-only effect, or another doubt; inactive = no such curve, though single readings can be large or run the other way. Potencies beside an inconclusive call are fits to weak or partial responses and may not hold up.

Chains of the proteins cited; added tags and fusions are not shown. Lines headed by an entry give the natural chain unless they say otherwise; changes in a name come on top.
UniProt P18054: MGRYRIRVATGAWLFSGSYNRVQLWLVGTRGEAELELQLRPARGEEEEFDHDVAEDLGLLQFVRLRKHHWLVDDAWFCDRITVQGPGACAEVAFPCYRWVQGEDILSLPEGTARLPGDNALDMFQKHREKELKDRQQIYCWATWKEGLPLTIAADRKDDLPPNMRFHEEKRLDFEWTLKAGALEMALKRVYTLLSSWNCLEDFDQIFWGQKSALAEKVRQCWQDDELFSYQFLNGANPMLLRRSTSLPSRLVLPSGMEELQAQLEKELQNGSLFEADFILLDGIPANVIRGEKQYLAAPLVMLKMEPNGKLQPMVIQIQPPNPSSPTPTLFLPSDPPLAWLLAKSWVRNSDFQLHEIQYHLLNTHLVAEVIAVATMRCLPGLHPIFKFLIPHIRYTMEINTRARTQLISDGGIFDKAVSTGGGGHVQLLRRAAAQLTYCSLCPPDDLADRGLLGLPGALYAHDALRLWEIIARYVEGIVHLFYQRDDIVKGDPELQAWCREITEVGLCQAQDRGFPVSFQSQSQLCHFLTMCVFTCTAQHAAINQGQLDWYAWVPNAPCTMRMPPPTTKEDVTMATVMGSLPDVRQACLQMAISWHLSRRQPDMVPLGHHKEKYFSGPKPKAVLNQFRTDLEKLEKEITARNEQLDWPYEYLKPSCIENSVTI

Biological target: Polyunsaturated fatty acid lipoxygenase ALOX12 (Homo sapiens) (UniProt P18054)
Experiment: Primary qHTS assay for inhibitors of human arachidonate 12S-lipoxygenase (ALOX12): Round 2
Settings: purified 12hLO, xylenol orange hydroperoxide absorbance; activity change, negative = inhibition: at 108 µM (top of the series) unless noted
How it was run: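 Hydroperoxide product was detected by ferrous iron/xylenol orange as the 573 to 405 nm absorbance ratio. Arachidonic acid at 40 uM (final) was turned over for 30 min at room temperature by 150 nM human 12hLO, pH 7.0 Hepes buffer, after 15 min compound preincubation.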
% is scaled to controls: 0 for no effect and ±100 for the full control effect; potency is read from the fitted curve at half-maximal effect.

SMILES | Potency | activity change, negative = inhibition
COc1cccc(C(=O)N2CCN(Cc3ccccc3Br)CC2)c1 | inconclusive: 2.24 µM [inhibitor, full curve, poor fit] | –
COc1cc(-c2noc(CN3CCN(c4ccccc4)CC3)n2)cc(OC)c1OC | inactive | –
COc1ccccc1CCNC(=O)CCSc1nc(-c2ccco2)cc(C(F)(F)F)n1 | inconclusive: 14.1 µM [inhibitor, partial curve, poor fit] | –
COc1ccc(NC(=O)CSc2nnc(C3CC3)n2C)cc1 | inactive | –
Cc1ccc2c(c1)C1CN(C)CCC1N2C(=S)NC(=O)c1ccc(Br)cc1 (configuration not stated) | inconclusive: 44.7 µM [inhibitor, partial curve, poor fit] | –
CC1=CC(C)(C)Nc2ccc(OC(=O)CCN3C(=O)c4ccccc4C3=O)cc21 | inactive | –
CNC(=S)NNC(=O)Cc1ccc(OC)cc1 | inactive | –
COc1ccc(N/C=C/C(=O)c2ccc(Br)cc2)cc1Cl | inconclusive: 25.1 µM [inhibitor, single point] | –
COCCN(CCOC)C(=O)c1cc(-c2cccs2)nc2ccccc12 | inconclusive: 50.1 µM [inhibitor, single point] | –
CC(=O)c1cc(CC(=O)N2CCC3(CCCN(C(C)C)C3=O)C2)cs1 (configuration not stated) | inactive | –
CCCN1CCCCC12Cc1ccccc1CN(C(=O)c1c(C)noc1C)C2 (configuration not stated) | – | inactive: 11% [at 6.33 µM]
O=C(Nc1cccs1)Nc1cc(C(F)(F)F)ccc1Cl | inconclusive: 50.1 µM [inhibitor, partial curve, poor fit] | –
CN(c1ccccc1)S(=O)(=O)c1cccc(NC(=O)c2ccc(Cl)c([N+](=O)[O-])c2)c1 | inconclusive: 10 µM [inhibitor, full curve, poor fit] | –
Cc1cc(C)c(NC(=O)C2CCN(c3nc4ccccc4[nH]3)CC2)c(C)c1 | inconclusive: 100 µM [inhibitor, partial curve, poor fit] | –
CC(C)NC(=O)/C(=C\c1cccc([N+](=O)[O-])c1)NC(=O)c1ccccc1 | inconclusive: 1 µM [inhibitor, full curve, poor fit] | –
CCOC(=O)C1CCCN(c2nc(C)nc3c2oc2ccccc23)C1 (configuration not stated) | inconclusive: 14.1 µM [inhibitor, full curve] | –
COc1ccc(Cc2nnc(SCC(=O)Nc3ccc(C)cc3C)[nH]c2=O)cc1 | inactive | –
Cc1sc(NC(=O)c2ccccc2)c(C(c2ccccc2)N2CCOCC2)c1C (configuration not stated) | inconclusive: 100 µM [inhibitor, single point] | –
Fc1ccc(C(c2ccc(F)cc2)N2CCN(CC=Cc3ccccc3)CC2)cc1 | inconclusive: 13.7 µM [inhibitor, partial curve] | –
C#CCOCCOCCOCCNc1nc(N2CCOCC2)nc(N2CCN(C(=O)[C@H](CCCCN)n3cc(CCCC)nn3)CC2)n1 | active: 35.5 µM | –
COc1ccc(NC(=O)COC(=O)c2ccccc2SCC(=O)N2CCCC2)cc1 | inconclusive: 126 µM [inhibitor, single point] | –

SMILES | Potency | activity change, negative = inhibition
CCOC(=O)C1CCN(c2ncnc3c2c(-c2ccccc2)cn3-c2cccc(C)c2)CC1 | inconclusive: 112 µM [inhibitor, partial curve, poor fit] | –
CN1CC(=O)N(C2CCNC2)Cc2c1ncnc2N(C)Cc1ccc(F)cc1 (configuration not stated) | inconclusive: 3.16 µM [inhibitor, partial curve, poor fit] | –
COc1cc(/C=N/NC(=O)c2csc3c2CCCC3)cc(OC)c1O | inconclusive: 126 µM [inhibitor, partial curve, poor fit] | –
Cc1ccc(Cn2c(C(=O)O)c(CNCc3ccccc3Cl)c3ccc(C)cc32)cc1 | inactive | –
Cc1ccc(S(=O)(=O)c2c(N)n(NC(=O)c3ccccc3C)c3nc4ccccc4nc23)cc1 | inconclusive: 2.51 µM [inhibitor, full curve, poor fit] | –
Cc1ccc(NC(=O)c2ccccc2C)c(Br)c1 | inactive | –
O=C1NCCC/C1=N/Nc1ccc(F)cc1 | inconclusive: 15.8 µM [inhibitor, partial curve, poor fit] | –
CCN(c1ccccc1)S(=O)(=O)c1ccc(C(=O)Nc2nnc(-c3ccco3)o2)cc1 | inactive | –
Cc1ccccc1-n1c(SCC(=O)Nc2ccc(Cl)cc2F)nnc1-c1cc2occc2n1C | inconclusive: 89.1 µM [inhibitor, partial curve, poor fit] | –
NC(=O)NC(=O)COC(=O)c1ccc(F)cc1F | inactive | –
COc1ccc(N2CCN(CC(O)COC(c3ccc(F)cc3)c3ccc(F)cc3)CC2)cc1 (configuration not stated) | inconclusive: 100 µM [inhibitor, single point] | –
CCOC(=O)C1CCCN(CCC(=O)Nc2cc(OC)ccc2OC)C1 (configuration not stated) | inconclusive: 35.5 µM [inhibitor, partial curve, poor fit] | –
CCN1C(=O)/C(=C2/Sc3ccccc3N2CCCS(=O)(=O)O)SC1=S | inconclusive: 56.2 µM [inhibitor, partial curve, poor fit] and inconclusive: 28.2 µM [inhibitor, partial curve, poor fit] | –
CCc1ccc2c(Cn3nc(C)c(C)c(C#N)c3=O)cc(=O)oc2c1 | inconclusive: 44.7 µM [inhibitor, partial curve, poor fit] | –
O=c1oc(CCCO)cc2ccc(C#Cc3ccsc3)cc12 | inactive | –
CN1C(C(=O)NCc2cccc(C(F)(F)F)c2)CC2Cn3c(nc4ccccc43)C21 (configuration not stated) | inactive | –
CC/C(=C/c1sc2ccc(C)cc2[n+]1CCO)SC | inconclusive: 17.8 µM [inhibitor, full curve] | –
CC(NCc1ccc([N+](=O)[O-])cc1)C1COc2ccccc2O1 (configuration not stated) | inconclusive: 3.55 µM [inhibitor, full curve, poor fit] | –
CC(C)(C(=O)O)N1CCOCC1 | inconclusive: 17.8 µM [inhibitor, full curve] | –
CCOc1ccc(CNC(=O)c2cccn2-c2nnc(N3CCCCC3)s2)cc1 | inactive | –
Cc1ccc(CN2CCc3nc(N4CCN(c5ncccn5)CC4)ncc3C2)cc1 | inconclusive: 15.8 µM [inhibitor, partial curve, poor fit] | –
